# Repeats are few or missing, and single values can be far off.
# Chains of the proteins cited; added tags and fusions are not shown. Lines headed by an entry give the natural chain unless they say otherwise; changes in a name come on top.
# UniProt O96033: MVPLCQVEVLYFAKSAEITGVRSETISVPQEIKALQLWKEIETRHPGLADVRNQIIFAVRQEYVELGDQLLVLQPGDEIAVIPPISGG
# UniProt O43167: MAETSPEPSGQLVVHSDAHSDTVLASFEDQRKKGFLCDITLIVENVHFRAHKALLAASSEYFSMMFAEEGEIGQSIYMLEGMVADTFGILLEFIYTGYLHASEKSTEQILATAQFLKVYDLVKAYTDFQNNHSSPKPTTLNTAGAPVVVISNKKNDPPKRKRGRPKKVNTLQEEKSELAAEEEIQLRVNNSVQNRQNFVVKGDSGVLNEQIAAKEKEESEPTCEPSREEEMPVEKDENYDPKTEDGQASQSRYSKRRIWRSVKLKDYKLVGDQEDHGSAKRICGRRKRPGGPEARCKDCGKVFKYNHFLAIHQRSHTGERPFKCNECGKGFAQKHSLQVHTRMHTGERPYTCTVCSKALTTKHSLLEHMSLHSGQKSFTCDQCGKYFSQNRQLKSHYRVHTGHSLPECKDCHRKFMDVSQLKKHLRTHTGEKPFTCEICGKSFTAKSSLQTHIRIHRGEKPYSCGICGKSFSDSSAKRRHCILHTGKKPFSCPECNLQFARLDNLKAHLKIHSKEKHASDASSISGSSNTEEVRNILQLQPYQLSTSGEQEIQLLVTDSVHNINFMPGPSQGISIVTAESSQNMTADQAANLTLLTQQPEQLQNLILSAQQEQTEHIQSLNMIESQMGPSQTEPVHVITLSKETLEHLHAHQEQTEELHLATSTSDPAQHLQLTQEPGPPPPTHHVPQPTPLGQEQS
# UniProt Q8N752: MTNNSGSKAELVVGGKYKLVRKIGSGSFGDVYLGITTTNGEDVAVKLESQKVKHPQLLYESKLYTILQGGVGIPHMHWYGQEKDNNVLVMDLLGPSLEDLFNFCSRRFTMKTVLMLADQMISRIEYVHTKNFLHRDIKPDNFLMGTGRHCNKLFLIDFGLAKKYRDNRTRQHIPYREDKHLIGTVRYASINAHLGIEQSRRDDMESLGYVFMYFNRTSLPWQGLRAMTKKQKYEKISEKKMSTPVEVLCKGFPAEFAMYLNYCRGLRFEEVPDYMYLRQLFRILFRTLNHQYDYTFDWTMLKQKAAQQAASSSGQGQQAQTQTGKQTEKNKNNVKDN
# UniProt O75449: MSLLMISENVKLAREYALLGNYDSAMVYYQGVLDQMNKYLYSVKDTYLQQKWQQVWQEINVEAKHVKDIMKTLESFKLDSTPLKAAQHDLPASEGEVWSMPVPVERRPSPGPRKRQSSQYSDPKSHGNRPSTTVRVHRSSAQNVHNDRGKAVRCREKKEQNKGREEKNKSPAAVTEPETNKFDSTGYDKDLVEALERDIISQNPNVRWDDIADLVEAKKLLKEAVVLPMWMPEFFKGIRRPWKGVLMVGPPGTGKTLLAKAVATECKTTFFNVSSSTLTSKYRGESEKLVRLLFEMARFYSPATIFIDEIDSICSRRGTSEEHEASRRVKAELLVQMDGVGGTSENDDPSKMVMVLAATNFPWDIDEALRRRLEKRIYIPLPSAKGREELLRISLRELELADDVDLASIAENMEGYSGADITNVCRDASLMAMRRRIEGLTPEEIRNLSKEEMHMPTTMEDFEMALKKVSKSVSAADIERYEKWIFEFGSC
# UniProt P11586, whole entry: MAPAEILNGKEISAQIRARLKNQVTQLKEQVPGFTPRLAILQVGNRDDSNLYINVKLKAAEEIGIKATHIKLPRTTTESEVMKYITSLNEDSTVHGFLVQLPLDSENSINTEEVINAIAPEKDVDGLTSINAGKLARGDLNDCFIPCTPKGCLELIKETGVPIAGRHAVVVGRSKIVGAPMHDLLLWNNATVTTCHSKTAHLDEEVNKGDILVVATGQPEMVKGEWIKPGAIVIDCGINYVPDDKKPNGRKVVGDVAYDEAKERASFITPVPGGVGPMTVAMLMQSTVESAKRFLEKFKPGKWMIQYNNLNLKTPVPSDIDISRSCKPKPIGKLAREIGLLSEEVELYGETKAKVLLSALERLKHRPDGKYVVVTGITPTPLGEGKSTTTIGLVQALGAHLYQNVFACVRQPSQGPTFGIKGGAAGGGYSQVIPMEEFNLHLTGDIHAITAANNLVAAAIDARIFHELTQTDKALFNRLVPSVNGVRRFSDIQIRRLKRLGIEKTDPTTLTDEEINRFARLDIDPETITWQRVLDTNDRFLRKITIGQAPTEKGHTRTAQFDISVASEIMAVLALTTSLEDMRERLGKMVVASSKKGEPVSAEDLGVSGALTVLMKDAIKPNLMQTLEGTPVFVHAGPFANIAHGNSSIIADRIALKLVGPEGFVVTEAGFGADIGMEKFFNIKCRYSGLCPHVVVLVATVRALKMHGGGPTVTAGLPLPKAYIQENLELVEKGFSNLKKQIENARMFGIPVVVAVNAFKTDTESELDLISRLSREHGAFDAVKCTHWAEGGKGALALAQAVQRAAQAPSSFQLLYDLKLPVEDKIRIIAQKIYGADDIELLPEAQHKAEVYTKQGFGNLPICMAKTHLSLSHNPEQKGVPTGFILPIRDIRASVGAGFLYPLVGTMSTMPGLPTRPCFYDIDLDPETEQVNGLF
# UniProt Q16825: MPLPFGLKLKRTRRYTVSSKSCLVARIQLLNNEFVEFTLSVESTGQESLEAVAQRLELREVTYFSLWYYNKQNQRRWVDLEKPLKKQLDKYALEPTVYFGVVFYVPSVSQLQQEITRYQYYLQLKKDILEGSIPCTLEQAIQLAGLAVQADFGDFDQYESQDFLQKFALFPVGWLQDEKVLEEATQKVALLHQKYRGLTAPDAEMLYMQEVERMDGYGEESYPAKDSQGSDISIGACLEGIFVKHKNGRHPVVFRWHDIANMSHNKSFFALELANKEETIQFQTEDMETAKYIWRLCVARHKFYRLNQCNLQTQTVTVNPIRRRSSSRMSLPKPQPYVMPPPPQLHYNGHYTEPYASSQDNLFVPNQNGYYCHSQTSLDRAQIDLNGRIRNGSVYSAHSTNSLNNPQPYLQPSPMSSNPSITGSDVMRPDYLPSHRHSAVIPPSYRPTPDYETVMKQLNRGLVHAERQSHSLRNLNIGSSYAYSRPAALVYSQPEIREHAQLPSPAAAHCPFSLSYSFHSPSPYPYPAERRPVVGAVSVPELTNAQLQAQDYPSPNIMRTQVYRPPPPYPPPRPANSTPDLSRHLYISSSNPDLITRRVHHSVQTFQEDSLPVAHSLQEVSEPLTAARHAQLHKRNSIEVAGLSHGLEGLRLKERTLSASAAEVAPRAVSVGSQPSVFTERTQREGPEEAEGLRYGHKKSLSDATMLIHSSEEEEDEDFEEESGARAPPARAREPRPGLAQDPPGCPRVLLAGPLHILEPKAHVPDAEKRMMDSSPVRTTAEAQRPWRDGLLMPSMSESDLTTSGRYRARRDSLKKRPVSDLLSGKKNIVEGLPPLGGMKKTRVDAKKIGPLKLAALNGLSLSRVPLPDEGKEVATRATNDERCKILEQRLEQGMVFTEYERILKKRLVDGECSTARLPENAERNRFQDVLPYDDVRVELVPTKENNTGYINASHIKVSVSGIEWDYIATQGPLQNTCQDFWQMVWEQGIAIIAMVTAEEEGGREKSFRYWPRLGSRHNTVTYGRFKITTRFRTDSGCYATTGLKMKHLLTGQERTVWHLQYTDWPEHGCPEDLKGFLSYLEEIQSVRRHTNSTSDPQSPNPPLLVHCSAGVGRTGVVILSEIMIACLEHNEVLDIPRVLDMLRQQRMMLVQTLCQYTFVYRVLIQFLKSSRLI
# UniProt Q969K3: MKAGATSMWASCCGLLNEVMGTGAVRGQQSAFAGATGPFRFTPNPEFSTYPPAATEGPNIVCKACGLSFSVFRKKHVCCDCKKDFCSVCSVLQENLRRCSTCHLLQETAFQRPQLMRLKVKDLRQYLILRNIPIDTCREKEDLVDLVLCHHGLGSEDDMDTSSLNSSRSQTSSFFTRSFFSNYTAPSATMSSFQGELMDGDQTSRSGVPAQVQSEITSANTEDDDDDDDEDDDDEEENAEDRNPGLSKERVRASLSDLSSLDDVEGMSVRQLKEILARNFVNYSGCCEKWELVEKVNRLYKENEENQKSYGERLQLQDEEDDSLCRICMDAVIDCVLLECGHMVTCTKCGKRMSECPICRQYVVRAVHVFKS
# UniProt O15371, whole entry: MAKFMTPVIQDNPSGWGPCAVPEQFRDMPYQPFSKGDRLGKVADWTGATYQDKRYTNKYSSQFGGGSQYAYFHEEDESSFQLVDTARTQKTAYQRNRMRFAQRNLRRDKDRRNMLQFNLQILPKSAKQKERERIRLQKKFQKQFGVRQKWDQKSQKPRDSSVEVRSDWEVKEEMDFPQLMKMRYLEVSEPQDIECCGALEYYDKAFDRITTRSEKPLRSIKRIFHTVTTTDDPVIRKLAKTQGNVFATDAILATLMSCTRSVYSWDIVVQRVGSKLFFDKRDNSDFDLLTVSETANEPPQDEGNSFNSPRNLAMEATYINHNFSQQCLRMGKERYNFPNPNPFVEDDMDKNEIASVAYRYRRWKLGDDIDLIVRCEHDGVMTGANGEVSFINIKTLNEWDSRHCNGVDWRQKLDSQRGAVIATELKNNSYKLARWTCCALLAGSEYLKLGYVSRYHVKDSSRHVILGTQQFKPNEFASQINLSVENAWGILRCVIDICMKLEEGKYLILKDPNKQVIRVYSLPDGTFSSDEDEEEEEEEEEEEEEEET
# UniProt P29590: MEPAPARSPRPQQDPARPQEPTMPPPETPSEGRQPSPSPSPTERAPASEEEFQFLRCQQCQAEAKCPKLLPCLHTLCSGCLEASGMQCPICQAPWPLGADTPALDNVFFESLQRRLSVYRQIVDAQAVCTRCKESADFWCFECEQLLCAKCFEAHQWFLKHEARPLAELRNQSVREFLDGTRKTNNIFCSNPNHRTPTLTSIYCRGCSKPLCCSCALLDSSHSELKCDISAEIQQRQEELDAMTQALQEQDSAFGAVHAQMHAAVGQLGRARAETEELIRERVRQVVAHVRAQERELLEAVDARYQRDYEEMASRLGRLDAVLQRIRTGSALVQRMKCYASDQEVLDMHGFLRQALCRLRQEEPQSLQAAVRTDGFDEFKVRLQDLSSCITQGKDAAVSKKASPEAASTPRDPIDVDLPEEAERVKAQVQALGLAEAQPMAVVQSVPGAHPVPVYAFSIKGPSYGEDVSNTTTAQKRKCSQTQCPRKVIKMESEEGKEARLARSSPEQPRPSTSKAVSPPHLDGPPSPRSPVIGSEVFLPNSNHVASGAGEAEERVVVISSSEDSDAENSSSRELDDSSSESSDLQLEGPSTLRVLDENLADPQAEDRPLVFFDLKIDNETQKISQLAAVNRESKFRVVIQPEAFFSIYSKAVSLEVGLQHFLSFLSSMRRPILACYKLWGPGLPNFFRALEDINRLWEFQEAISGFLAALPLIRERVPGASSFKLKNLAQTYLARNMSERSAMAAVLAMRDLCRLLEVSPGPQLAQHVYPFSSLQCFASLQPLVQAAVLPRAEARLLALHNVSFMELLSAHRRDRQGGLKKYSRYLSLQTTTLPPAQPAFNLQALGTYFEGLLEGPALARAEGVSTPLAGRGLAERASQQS
# UniProt Q96GC9: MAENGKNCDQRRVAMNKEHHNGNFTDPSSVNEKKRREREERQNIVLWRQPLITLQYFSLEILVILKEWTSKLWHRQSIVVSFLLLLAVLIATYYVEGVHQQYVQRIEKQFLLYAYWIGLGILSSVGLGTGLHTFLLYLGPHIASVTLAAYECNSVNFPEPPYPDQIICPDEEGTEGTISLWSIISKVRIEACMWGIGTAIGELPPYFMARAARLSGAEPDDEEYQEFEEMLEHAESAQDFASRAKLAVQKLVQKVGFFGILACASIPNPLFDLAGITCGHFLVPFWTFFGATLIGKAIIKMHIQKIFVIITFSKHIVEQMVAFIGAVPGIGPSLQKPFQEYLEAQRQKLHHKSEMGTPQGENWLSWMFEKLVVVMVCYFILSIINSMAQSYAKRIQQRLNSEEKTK
# UniProt A8MVM7: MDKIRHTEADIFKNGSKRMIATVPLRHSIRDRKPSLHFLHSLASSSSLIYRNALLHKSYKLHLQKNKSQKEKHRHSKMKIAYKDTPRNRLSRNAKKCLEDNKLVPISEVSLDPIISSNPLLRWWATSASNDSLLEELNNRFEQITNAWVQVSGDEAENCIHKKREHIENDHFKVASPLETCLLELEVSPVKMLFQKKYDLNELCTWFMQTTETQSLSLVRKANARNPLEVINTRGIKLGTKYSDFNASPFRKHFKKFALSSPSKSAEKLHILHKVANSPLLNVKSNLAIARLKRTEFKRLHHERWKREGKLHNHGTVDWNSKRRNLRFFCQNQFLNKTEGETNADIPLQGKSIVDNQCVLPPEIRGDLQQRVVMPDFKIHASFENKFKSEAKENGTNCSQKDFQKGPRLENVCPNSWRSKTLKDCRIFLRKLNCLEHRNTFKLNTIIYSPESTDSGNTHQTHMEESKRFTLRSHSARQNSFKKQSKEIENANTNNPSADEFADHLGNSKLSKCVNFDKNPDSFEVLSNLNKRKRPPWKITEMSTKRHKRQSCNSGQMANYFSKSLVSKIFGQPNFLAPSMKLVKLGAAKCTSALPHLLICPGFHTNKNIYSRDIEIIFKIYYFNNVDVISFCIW
# Compound: [O-][N+](C(C1=C(C(O)=C2)NC(C(C=C3)=CC=C3Cl)C4C1C=CC4)=C2Cl)=O
# Assay: melting temperature shift (compound 7 minus DMSO); higher = compound stabilises the protein
# Conditions: 10 µM
# Method: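 Thermal proteome profiling (TMT mass spectrometry) in intact DAOY medulloblastoma cells or DAOY lysates treated with 10 µM compound 7 or DMSO, heated at 10 temperatures from 40.5 to 73.8 °C for 3 min. Melting curves were fitted with the Bioconductor TPP package, and the melting point difference between compound and vehicle is reported per protein (single curve per condition).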
# [1] = system: DAOY cell lysate, treatment time: 20 min, 4 °C
# [2] = system: intact DAOY cells, treatment time: 90 min, 37 °C
Target,melting temperature shift [1],melting temperature shift [2]
CASP8 (UniProt Q14790),-1.31 °C,0.0169 °C
UniProt O96033,-1.08 °C,-0.694 °C
UniProt O60287,-0.382 °C,–
CRLF3 (UniProt Q8IUI8),-0.019 °C,0.471 °C
MPC2 (UniProt O95563),1.63 °C,-0.995 °C
MTA3 (UniProt Q9BTC8),0.207 °C,-0.95 °C
UniProt Q9Y2K7,0.541 °C,-0.287 °C
QTRTD1 (UniProt Q9H974),-1.72 °C,0.946 °C
DBNL (UniProt Q9UJU6),-1.18 °C,-0.325 °C
UniProt P19105,–,-0.879 °C
CTBP1 (UniProt Q13363),-0.843 °C,0.4 °C
UniProt Q86W74,–,-0.868 °C
ZFR (UniProt Q96KR1),0.228 °C,-0.0421 °C
CLN6 (UniProt Q9NWW5),0.51 °C,–
NBAS (UniProt A2RRP1),1.37 °C,-1.22 °C
UniProt O43167,0.423 °C,–
SRSF1 (UniProt Q07955),-0.365 °C,–
UniProt P10114,–,-3.18 °C
DCTN4 (UniProt Q9UJW0),-0.905 °C,0.649 °C
CSNK1A1L (UniProt Q8N752),–,-0.0531 °C
UniProt P05106,-1.37 °C,-0.909 °C
TK1 (UniProt P04183),-1.49 °C,–
UPP1 (UniProt Q16831),-1.02 °C,-0.334 °C

Target,melting temperature shift [1],melting temperature shift [2]
UniProt P0DN86,5.13 °C,–
LACTB2 (UniProt Q53H82),1.18 °C,-1.08 °C
COX5A (UniProt P20674),-0.773 °C,0.588 °C
PAK1 (UniProt Q13153),–,-0.725 °C
RPL23A (UniProt P62750),0.213 °C,-0.607 °C
UniProt P41212,0.0877 °C,–
LYPLA1 (UniProt O75608),-0.737 °C,-0.268 °C
UniProt P60709,0.187 °C,0.597 °C
EHMT2 (UniProt Q96KQ7),-0.576 °C,1.25 °C
DYNLL1 (UniProt P63167),0.99 °C,0.948 °C
KATNA1 (UniProt O75449),-0.0811 °C,-0.69 °C
MTHFD1 (UniProt P11586),-0.64 °C,-1.01 °C
TKFC (UniProt Q3LXA3),-0.665 °C,-1.28 °C
SLC30A1 (UniProt Q9Y6M5),2.48 °C,–
ZDHHC17 (UniProt Q8IUH5),0.559 °C,1.95 °C
UniProt Q86WH2,–,-2.39 °C
UniProt Q16825,0.253 °C,–
NFYC (UniProt Q13952),-0.216 °C,-0.324 °C
ANO10 (UniProt Q9NW15),0.605 °C,-0.468 °C
RNF34 (UniProt Q969K3),-1.24 °C,–
SNX15 (UniProt Q9NRS6),2.02 °C,–
UniProt Q8N5B7,2.39 °C,–
DDX1 (UniProt Q92499),-0.403 °C,0.0441 °C

Target,melting temperature shift [1],melting temperature shift [2]
USF1 (UniProt P22415),–,-1.51 °C
TES (UniProt Q9UGI8),0.502 °C,–
LRSAM1 (UniProt Q6UWE0),-0.623 °C,0.563 °C
RTN4RL2 (UniProt Q86UN3),–,-1.48 °C
SUCLG1 (UniProt P53597),0.313 °C,-2.01 °C
ATG2B (UniProt Q96BY7),-0.145 °C,-0.245 °C
P3H2 (UniProt Q8IVL5),-0.551 °C,1.28 °C
DFNA5 (UniProt O60443),-1.09 °C,-0.582 °C
BSG (UniProt P35613),4.56 °C,–
UniProt O15231,2.93 °C,–
UniProt B7ZAP0,-0.441 °C,–
TAGLN (UniProt Q01995),-0.952 °C,0.00474 °C
SMG9 (UniProt Q9H0W8),-0.0469 °C,–
UniProt Q6S5L8,–,0.336 °C
UniProt Q9BYI3,-0.702 °C,–
UFM1 (UniProt P61960),-0.952 °C,2.35 °C
UPF3B (UniProt Q9BZI7),-0.224 °C,0.338 °C
MRI1 (UniProt Q9BV20),-1.09 °C,0.0188 °C
ANKRD54 (UniProt Q6NXT1),–,-1.46 °C
PTBP2 (UniProt Q9UKA9),–,-0.791 °C
UniProt O60879,-0.744 °C,-0.0437 °C
RPAP2 (UniProt Q8IXW5),–,-0.194 °C
PEX11B (UniProt O96011),0.0274 °C,1.49 °C

Target,melting temperature shift [1],melting temperature shift [2]
UniProt Q86UP8,–,0.467 °C
CDK8 (UniProt P49336),0.292 °C,–
UniProt Q16625,4.03 °C,–
EIF3D (UniProt O15371),-0.0967 °C,-0.033 °C
PPP2R5D (UniProt Q14738),-0.382 °C,-0.455 °C
SH3D19 (UniProt Q5HYK7),–,-4.49 °C
UniProt Q3KRA6,-0.762 °C,0.797 °C
ATP2C1 (UniProt P98194),0.231 °C,-1.03 °C
DNAAF2 (UniProt Q9NVR5),-1.06 °C,0.254 °C
UniProt Q2M1Z3,-1.25 °C,2.99 °C
NDUFB7 (UniProt P17568),2.72 °C,-0.743 °C
UniProt P13796,0.532 °C,0.682 °C
ARMC6 (UniProt Q6NXE6),-1.05 °C,0.402 °C
UniProt Q8NDT2,0.508 °C,–
RPL36 (UniProt Q9Y3U8),0.531 °C,-0.715 °C
UniProt Q15406,–,-0.531 °C
PML (UniProt P29590),0.157 °C,-0.306 °C
GLRX5 (UniProt Q86SX6),0.499 °C,1.04 °C
SLC27A4 (UniProt Q6P1M0),0.73 °C,-0.0102 °C
FLOT2 (UniProt Q14254),1.23 °C,2.3 °C
UBE2E1 (UniProt P51965),-0.493 °C,-0.534 °C
FBXO38 (UniProt Q6PIJ6),-0.514 °C,0.201 °C
UniProt A4QPH2,0.201 °C,–

# Some of the entries above in a different format.
Target	melting temperature shift [1]	melting temperature shift [2]
DFNA5 (UniProt O60443)	-1.09 °C	-0.582 °C
BSG (UniProt P35613)	4.56 °C	–
UniProt O15231	2.93 °C	–
UniProt B7ZAP0	-0.441 °C	–
TAGLN (UniProt Q01995)	-0.952 °C	0.00474 °C
SMG9 (UniProt Q9H0W8)	-0.0469 °C	–
UniProt Q6S5L8	–	0.336 °C
UniProt Q9BYI3	-0.702 °C	–
UFM1 (UniProt P61960)	-0.952 °C	2.35 °C
UPF3B (UniProt Q9BZI7)	-0.224 °C	0.338 °C
MRI1 (UniProt Q9BV20)	-1.09 °C	0.0188 °C
ANKRD54 (UniProt Q6NXT1)	–	-1.46 °C
PTBP2 (UniProt Q9UKA9)	–	-0.791 °C
UniProt O60879	-0.744 °C	-0.0437 °C
RPAP2 (UniProt Q8IXW5)	–	-0.194 °C
PEX11B (UniProt O96011)	0.0274 °C	1.49 °C
UniProt Q86UP8	–	0.467 °C
CDK8 (UniProt P49336)	0.292 °C	–
UniProt Q16625	4.03 °C	–
EIF3D (UniProt O15371)	-0.0967 °C	-0.033 °C
PPP2R5D (UniProt Q14738)	-0.382 °C	-0.455 °C
SH3D19 (UniProt Q5HYK7)	–	-4.49 °C
UniProt Q3KRA6	-0.762 °C	0.797 °C
ATP2C1 (UniProt P98194)	0.231 °C	-1.03 °C
DNAAF2 (UniProt Q9NVR5)	-1.06 °C	0.254 °C
UniProt Q2M1Z3	-1.25 °C	2.99 °C
NDUFB7 (UniProt P17568)	2.72 °C	-0.743 °C
UniProt P13796	0.532 °C	0.682 °C
ARMC6 (UniProt Q6NXE6)	-1.05 °C	0.402 °C
UniProt Q8NDT2	0.508 °C	–
RPL36 (UniProt Q9Y3U8)	0.531 °C	-0.715 °C
UniProt Q15406	–	-0.531 °C
PML (UniProt P29590)	0.157 °C	-0.306 °C
GLRX5 (UniProt Q86SX6)	0.499 °C	1.04 °C
SLC27A4 (UniProt Q6P1M0)	0.73 °C	-0.0102 °C
FLOT2 (UniProt Q14254)	1.23 °C	2.3 °C

# The results go on:

Target,melting temperature shift [1],melting temperature shift [2]
SUCLA2 (UniProt Q9P2R7),0.812 °C,-2.67 °C
MRPL46 (UniProt Q9H2W6),-4.3 °C,-0.629 °C
MRPS9 (UniProt P82933),1 °C,-0.929 °C
POFUT1 (UniProt Q9H488),-0.222 °C,0.242 °C
ASH2L (UniProt Q9UBL3),0.24 °C,-0.263 °C
VMP1 (UniProt Q96GC9),-1.15 °C,0.628 °C
PWP1 (UniProt Q13610),1.39 °C,1.93 °C
UniProt Q9BSW2,1.08 °C,0.768 °C
UniProt A8MVM7,–,-0.916 °C
ACTR3 (UniProt P61158),-0.898 °C,-0.0201 °C
UniProt P35556,–,-0.284 °C
PA2G4 (UniProt Q9UQ80),-0.424 °C,-0.393 °C
CPD (UniProt O75976),0.489 °C,1.97 °C
EIF2S2 (UniProt P20042),-0.0131 °C,-0.637 °C
NFKBIB (UniProt Q15653),-0.555 °C,-0.438 °C
PPP6C (UniProt O00743),-0.656 °C,0.579 °C
PAFAH1B1 (UniProt P43034),-0.72 °C,0.000612 °C
PPP1CA (UniProt P62136),-0.379 °C,0.319 °C
MCM6 (UniProt Q14566),-0.436 °C,-1.37 °C
RPS9 (UniProt P46781),-0.484 °C,-0.97 °C
RNF25 (UniProt Q96BH1),0.122 °C,-0.0472 °C
WDR61 (UniProt Q9GZS3),-0.121 °C,1.3 °C
MRPS27 (UniProt Q92552),-0.541 °C,-1.39 °C
